Literature values in US20230211030A1, “SYSTEMS AND METHODS FOR DISINFECTING PLUMBING FIXTURES AND ROOMS WITH PLUMBING FIXTURES” (priority 2021, published 2023).
For at least one compound, name, drawing or mass did not settle the structure.

Settings: cited from earlier work

In the case of `O=[O+][O-]` [ozone], the oxidation potential is given as 2.07 eV.
